The record followed here is publication PMC5415634.

No constants are given. Whether binding was seen depends on the method and setting. Binding seen in cells or lysates may run through a third protein. Binding calls can cover weak binding; strength is not graded here. Sequences can lack the tags named with a protein.

What all share (assay): co-IP; Aag2 cell lines stably expressing a V5-tagged protein transfected with a myc-tagged protein expression construct; lysates 48 h p.t. (150 mM NaCl, 5 mM MgCl2, 20 mM HEPES pH 7.4, 0.5% Triton X-100); IP with mouse anti-myc and protein G magnetic beads at 4°C; Western blot for V5 and myc tags
The target in assay [1] is T1, myc-tagged Ago2 (A. aegypti) (UniProt C5J0H4).
T1 sequence: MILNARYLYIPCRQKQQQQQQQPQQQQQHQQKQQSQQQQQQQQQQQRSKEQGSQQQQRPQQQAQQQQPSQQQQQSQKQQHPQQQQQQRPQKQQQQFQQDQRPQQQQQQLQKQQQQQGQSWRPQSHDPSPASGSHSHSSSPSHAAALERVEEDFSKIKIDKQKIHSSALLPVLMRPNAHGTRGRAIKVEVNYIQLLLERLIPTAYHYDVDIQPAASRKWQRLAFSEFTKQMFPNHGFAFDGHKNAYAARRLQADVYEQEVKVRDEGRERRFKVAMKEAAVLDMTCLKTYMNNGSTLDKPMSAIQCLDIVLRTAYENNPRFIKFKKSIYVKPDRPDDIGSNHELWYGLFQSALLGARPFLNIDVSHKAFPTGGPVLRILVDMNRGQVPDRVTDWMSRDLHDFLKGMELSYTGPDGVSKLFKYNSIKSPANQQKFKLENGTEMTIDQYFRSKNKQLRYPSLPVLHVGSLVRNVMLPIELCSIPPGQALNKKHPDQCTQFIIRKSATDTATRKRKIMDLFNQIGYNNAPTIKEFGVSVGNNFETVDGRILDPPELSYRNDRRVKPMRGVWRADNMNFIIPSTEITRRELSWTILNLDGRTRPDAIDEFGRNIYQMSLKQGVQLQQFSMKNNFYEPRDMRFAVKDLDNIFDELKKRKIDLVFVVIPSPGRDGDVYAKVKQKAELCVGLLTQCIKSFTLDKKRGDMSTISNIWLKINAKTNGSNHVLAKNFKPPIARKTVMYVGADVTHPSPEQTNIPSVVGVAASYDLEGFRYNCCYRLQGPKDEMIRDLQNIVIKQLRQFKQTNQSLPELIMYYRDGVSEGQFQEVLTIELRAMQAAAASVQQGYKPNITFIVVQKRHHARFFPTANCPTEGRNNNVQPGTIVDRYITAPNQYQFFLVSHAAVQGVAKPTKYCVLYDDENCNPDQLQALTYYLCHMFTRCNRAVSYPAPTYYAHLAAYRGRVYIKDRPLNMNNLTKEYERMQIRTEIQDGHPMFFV

Assay [2] deals with myc-tagged Dcr2 (A. aegypti).
The target of assay [3] is myc-tagged Piwi4 (A. aegypti).

V5-tagged Piwi4 (A. aegypti): the binding entry in assay [1] was “binds”.

Consider V5-tagged Dcr2 (A. aegypti), for which the binding entry in assay [1] is reported as “binds”.

B1: V5-tagged Ago2 (protein, UniProt C5J0H4 1-992)
chain: T1 sequence
For the molecule B1, the binding entry in assay [2] and in assay [3] was “binds” each time.
